Structures can show the parent of a compound that is named as a salt. Some of the results follow. Hit calls seldom repeat between salt and free forms of one compound.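 In K562 cells expressing nanoluciferase-fused kinases, luminescence was recorded at 4 h intervals between 2 and 18 h, normalized as percent of control with DMSO at 100% and a positive control at 0%. A significant (2 sigma) signal drop marks a time point as decreased. The authors' rule for a hit is not shown and takes in more than the number of time points.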
How the values were obtained:
Settings in all cases: K562; 2-18 h
YES1 = YES1 (UniProt P07947); test: number of time points (of 5) at which kinase-Nluc abundance scored as decreased, DMSO-normalised (count); higher = more persistent destabilization
ZAK = ZAK (UniProt Q9NYL2); test: as above
ZAP70 = ZAP70 (UniProt P43403); test: as above
CDK4 = CDK4 (UniProt P11802); test: number of time points (of 4; 2 h point missing) at which kinase-Nluc abundance scored as decreased, DMSO-normalised (count); higher = more persistent destabilization
CDK7 = CDK7 (UniProt P50613); test: as above
CDK9 = CDK9 (UniProt P50750); test: as above

Protein sequences, listed by entry. Tags and fused reporters are not part of them. Lines headed by an entry give the natural chain unless they say otherwise; changes in a name come on top.
UniProt P07947, whole entry, looked up: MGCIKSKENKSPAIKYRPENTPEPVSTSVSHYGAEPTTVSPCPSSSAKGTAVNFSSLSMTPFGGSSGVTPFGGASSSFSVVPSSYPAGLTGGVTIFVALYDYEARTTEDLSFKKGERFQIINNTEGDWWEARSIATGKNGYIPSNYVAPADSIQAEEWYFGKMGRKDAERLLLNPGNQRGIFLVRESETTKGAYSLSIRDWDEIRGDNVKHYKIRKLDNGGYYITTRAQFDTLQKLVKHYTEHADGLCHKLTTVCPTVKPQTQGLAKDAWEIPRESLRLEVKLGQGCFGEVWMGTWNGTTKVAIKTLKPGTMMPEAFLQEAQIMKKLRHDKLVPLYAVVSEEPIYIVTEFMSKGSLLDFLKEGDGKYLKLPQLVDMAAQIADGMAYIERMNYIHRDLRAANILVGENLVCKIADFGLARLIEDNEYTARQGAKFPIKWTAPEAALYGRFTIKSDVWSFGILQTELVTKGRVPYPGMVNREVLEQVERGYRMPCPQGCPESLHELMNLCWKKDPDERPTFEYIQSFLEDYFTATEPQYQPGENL
UniProt P43403: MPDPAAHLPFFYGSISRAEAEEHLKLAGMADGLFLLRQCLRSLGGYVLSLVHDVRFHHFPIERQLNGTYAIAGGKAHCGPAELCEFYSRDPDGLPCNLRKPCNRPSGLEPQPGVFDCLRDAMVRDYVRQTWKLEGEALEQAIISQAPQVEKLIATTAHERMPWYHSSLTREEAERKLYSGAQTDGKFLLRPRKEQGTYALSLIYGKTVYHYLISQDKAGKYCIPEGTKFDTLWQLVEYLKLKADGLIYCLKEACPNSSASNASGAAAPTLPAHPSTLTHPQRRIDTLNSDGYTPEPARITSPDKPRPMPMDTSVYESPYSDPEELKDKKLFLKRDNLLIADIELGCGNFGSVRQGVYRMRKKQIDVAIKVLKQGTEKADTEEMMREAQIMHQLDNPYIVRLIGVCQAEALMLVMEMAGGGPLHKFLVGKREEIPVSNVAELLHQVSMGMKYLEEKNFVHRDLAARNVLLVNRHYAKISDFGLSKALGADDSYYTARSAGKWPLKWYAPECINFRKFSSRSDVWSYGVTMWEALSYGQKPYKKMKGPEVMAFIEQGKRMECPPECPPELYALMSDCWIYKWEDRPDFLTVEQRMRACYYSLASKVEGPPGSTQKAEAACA
UniProt P11802: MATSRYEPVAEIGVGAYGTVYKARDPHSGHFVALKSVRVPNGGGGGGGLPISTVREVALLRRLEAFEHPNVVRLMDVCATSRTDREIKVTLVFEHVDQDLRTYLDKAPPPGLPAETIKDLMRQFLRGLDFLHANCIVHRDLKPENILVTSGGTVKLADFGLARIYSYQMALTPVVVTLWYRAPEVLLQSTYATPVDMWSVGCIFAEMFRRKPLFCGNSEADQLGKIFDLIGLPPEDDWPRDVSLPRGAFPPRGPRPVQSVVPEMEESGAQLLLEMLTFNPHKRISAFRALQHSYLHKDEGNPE
UniProt P50613: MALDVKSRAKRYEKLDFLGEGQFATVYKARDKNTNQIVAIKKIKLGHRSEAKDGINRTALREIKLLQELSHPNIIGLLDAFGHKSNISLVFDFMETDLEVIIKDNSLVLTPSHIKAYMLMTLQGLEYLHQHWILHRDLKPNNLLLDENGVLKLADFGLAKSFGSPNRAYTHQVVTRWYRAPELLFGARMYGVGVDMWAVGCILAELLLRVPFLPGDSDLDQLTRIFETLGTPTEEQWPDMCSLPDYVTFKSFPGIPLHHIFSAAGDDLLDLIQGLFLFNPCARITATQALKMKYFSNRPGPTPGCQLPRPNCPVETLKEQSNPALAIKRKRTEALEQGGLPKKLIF
UniProt P50750, whole entry: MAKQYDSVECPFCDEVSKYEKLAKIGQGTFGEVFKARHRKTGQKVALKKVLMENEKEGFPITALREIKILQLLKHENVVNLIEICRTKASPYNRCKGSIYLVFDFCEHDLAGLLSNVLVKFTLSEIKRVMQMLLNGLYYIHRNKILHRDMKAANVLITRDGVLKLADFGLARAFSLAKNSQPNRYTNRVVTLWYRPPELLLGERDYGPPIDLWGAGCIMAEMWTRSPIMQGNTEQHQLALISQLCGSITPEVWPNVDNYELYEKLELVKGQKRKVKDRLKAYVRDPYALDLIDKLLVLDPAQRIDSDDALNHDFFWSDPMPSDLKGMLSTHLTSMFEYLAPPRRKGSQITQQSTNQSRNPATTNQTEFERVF

SMILES | number of time points (YES1) | number of time points (ZAK) | number of time points (ZAP70) | number of time points (CDK4) | number of time points (CDK7) | number of time points (CDK9)
COc1ccc(C(=O)c2cn(C(C)C)c3ncnc(N)c23)cc1NC(=O)Nc1ccc(Cl)cc1Cl (10 µM) | 0 | 0 | 0 | 0 | 0 | 0
C[C@@H]1CC[C@]2(C(=O)O)CC[C@]3(C)C(=CC[C@@H]4[C@@]5(C)CC[C@H](O)[C@@](C)(CO)[C@@H]5CC[C@]43C)[C@@H]2[C@]1(C)O [Rotundic acid] (10 µM) | 0 | 0 | 0 | 0 | 0 | 0
CC(=O)c1cc(O)ccc1O [2,5-Dihydroxyacetophenone] (10 µM) | 0 | 0 | 0 | 0 | 0 | 0
C[C@H](CC[C@@H](O)C(C)(C)O)[C@H]1CC[C@@]2(C)[C@@H]3CC=C4[C@@H](CC[C@H](O)C4(C)C)[C@]3(C)[C@H](O)C[C@]12C [Mogrol] (10 µM) | 0 | 0 | 0 | 0 | 0 | 0
O=C(Nc1nccs1)C(c1cc(F)ccc1O)N1Cc2ccc(-c3ccc(N4CCNCC4)cc3)cc2C1=O (racemic) (10 µM) | 0 | 0 | 0 | 0 | 0 | 0
CC(C)(C)c1ccc(C(=O)Nc2cn3cc(-n4ccnc4)ccc3n2)cc1 (10 µM) | 0 | 0 | 0 | 0 | 0 | 0
CCOC(=O)C1=C[C@]2(CC)CCCN3CCc4c(n1c1ccccc41)[C@@H]32 [Vinpocetine] (10 µM) | 0 | 0 | 0 | 0 | 0 | 0
O=c1cc(-c2ccc(O)cc2)oc2cc(O)c([C@@H]3O[C@H](CO)[C@@H](O)[C@H](O)[C@H]3O)c(O)c12 [Isovitexin] (10 µM) | 0 | 0 | 0 | 0 | 0 | 0
Clc1ccc(Nc2cccc(-c3cn[nH]c3)c2)cc1 (10 µM) | 0 | 0 | 0 | 0 | 0 | 0
C=CC(=O)Nc1cccc(Oc2nc(Nc3ccc(N4CCN(C)CC4)cc3)ncc2Cl)c1 (2.5 µM) | 0 | 0 | 0 | 0 | 0 | 0
CCc1ccc(NC(=O)Nc2ccccc2)cc1 (10 µM) | 0 | 0 | 0 | 0 | 0 | 0
CC[C@H](C)[C@@H]1NC(=O)[C@@H]2CCCN2C(=O)[C@@H]2CCCN2C(=O)[C@@H]2CCCN2C(=O)[C@H](CC(C)C)NC(=O)CNC(=O)CNC(=O)[C@H](Cc2ccccc2)NC1=O [Heterophyllin B] (10 µM) | 0 | 0 | 0 | 0 | 0 | 0
CNC(=O)c1nnc(NC(=O)C2CC2)cc1Nc1cccc(-c2ncn(C)n2)c1OC [Deucravacitinib] (10 µM) | 0 | 0 | 0 | 0 | 0 | 0
COC(=O)/C=C/c1ccc(O)c(OC)c1 [Ferulic acid methyl ester] (10 µM) | 0 | 0 | 0 | 0 | 0 | 0
C=CCN(/C=C1/C(=O)O[C@H](COC)[C@@]2(C)C1=C(O)C(=O)C1=C2[C@H](OC(C)=O)C[C@]2(C)C(=O)CC[C@@H]12)CC=C [Sonolisib] (2.5 µM) | 0 | 0 | 0 | 0 | 0 | 0
CC[C@H](C)[C@H](NC(=O)[C@H](CCCCN)NC(=O)[C@H](CC(C)C)NC(=O)[C@@H]1CCCN1C(=O)[C@H](CCC(=O)O)NC(=O)[C@H](Cc1ccc(O)cc1)NC(=O)[C@@H](NC(=O)[C@H](CO)NC(=O)CNC(=O)[C@H](CO)NC(=O)[C@H](CCCN=C(N)N)NC(=O)[C@H](CCCCN)NC(=O)[C@@H](NC(=O)[C@@H](N)CCCN=C(N)N)[C@@H](C)O)C(C)C)C(=O)O [Malantide] (10 µM) | 0 | 0 | 0 | 0 | 0 | 0
CNC(=O)c1c(C)oc2cc(Oc3ncnc4cc(OC)c(OC)cc34)ccc12 [Fruquintinib] (10 µM) | 0 | 0 | 0 | 0 | 0 | 0
CC(C)=C/C=C1\O[C@@H]2CC(C)=CC(=O)[C@@H]2[C@]1(C)O [Bisabolangelone] (10 µM) | 0 | 0 | 0 | 0 | 0 | 0
COc1ncc2cc(C(=O)Nc3cc(C(=O)NCc4cccc(Cl)c4)ccc3Cl)c(=O)[nH]c2n1 (2.5 µM) | 0 | 0 | 0 | 0 | 0 | 0
CN(C)CCCn1cc(C2=C(c3c[nH]c4ccccc34)C(=O)NC2=O)c2ccccc21 [Bisindolylmaleimide I] (2.5 µM) | 0 | 0 | 0 | 0 | 0 | 0
N#Cc1c[nH]c2ccc(-c3ccc(-c4c(O)cccc4O)cc3)cc12 (10 µM) | 0 | 0 | 0 | 0 | 0 | 0

SMILES | number of time points (YES1) | number of time points (ZAK) | number of time points (ZAP70) | number of time points (CDK4) | number of time points (CDK7) | number of time points (CDK9)
O=C(N=c1sccn1Cc1ccccc1)c1c[nH]c2ncccc12 (10 µM) | 0 | 0 | 0 | 0 | 0 | 0
Cn1cc(C2=C(c3c4n(c5ccccc35)CCC(CN)C4)C(=O)NC2=O)c2ccccc21 (configuration not stated) [Bisindolylmaleimide X (hydrochloride)] (2.5 µM) | 0 | 0 | 0 | 0 | 0 | 0
CN(c1ccc(C(F)(F)F)cc1)S(=O)(=O)c1ccc(C(=O)Nc2nc(-c3ccccn3)cs2)cc1 (2.5 µM) | 0 | 0 | 0 | 0 | 0 | 0
Cn1cc(-c2ccc3nnc(Sc4ccc5nn(C)cc5c4)n3n2)cn1 [c-Met inhibitor 1] (10 µM) | 0 | 0 | 0 | 0 | 0 | 0
O=C1c2cccc(O)c2C(=O)c2c(O)cccc21 [Danthron] (10 µM) | 0 | 0 | 0 | 0 | 0 | 0
C=CC(=O)N1CCC[C@@H](n2c(=O)n(-c3ccc(Oc4ccccc4)cc3)c3c(N)nccc32)C1 [Tolebrutinib] (10 µM) | 0 | 0 | 0 | 0 | 0 | 0
CC(C)(C)NS(=O)(=O)c1cncc(-c2cc(F)c3nc(N)nn3c2)c1 (10 µM) | 0 | 0 | 0 | 0 | 0 | 0
COc1cc(OC)c(/C=C/S(=O)(=O)Cc2ccc(OC)c(NCC(=O)O)c2)c(OC)c1 [Rigosertib (sodium)] (10 µM) | 0 | 0 | 0 | 0 | 2 | 0
O=C1c2c(O)cc(O)cc2O[C@H](c2cc(O)c(O)c(O)c2)[C@H]1O [Dihydromyricetin] (10 µM) | 0 | 0 | 0 | 0 | 0 | 0
Cc1cc(/C=C2\CC/C(=C\c3cc(C)c(O)c(C)c3)C2=O)cc(C)c1O [Pentagamavunon-1] (2.5 µM) | 0 | 0 | 0 | 0 | 0 | 0
O=C(O)/C=C/c1cc(Br)c(Br)c(Br)c1Br (10 µM) | 0 | 0 | 0 | 0 | 0 | 0
COc1ccc(F)cc1C(=O)NCc1ccc(-c2nn([C@@H](C)C(F)(F)F)c(N)c2C(N)=O)cc1 [Pirtobrutinib] (10 µM) | 0 | 0 | 0 | 0 | 0 | 0
O=C(Nc1nc2cccc(-c3ccc(CN4CCS(=O)(=O)CC4)cc3)n2n1)C1CC1 [Filgotinib] (2.5 µM) | 0 | 0 | 0 | 0 | 0 | 0
O=S(=O)(c1cccc2c(Cl)cccc12)N1CCCNCC1 (10 µM) | 0 | 0 | 0 | 0 | 0 | 0
COc1cccc2cc(-c3nc([C@H]4CC[C@H](C(=O)O)CC4)n4ncnc(N)c34)[nH]c12 (2.5 µM) | 1 | 1 | 0 | 0 | 3 | 4
Cc1ncc(F)c(Nc2n[nH]c3c2CN(C(=O)N2C[C@@H](C)N(CC4CCOCC4)C[C@@H]2C)C3(C)C)n1 (10 µM) | 0 | 0 | 0 | 0 | 0 | 0
COc1cc(/C=C/c2ccc(NC(=O)/C=C/c3cc(OC)c(OC)c(OC)c3)cc2)cc(OC)c1 (2.5 µM) | 0 | 0 | 0 | 0 | 0 | 0
CCCC[C@H](CO)Nc1nc(NC)ncc1OC [Interferon receptor inducer-1] (10 µM) | 0 | 0 | 0 | 0 | 0 | 0
COc1cc(-c2cnc(N)c(-c3ccc(NC(=O)c4cn(CC5CCOCC5)cc(-c5ccc(C)cn5)c4=O)cc3F)c2)ccc1OC[C@H]1COCCO1 [DS-1205b (free base)] (10 µM) | 0 | 0 | 0 | 0 | 0 | 0
Cc1cccc(Cn2nc(C)c3c(NC(=O)c4csc5c(N)ncnc45)cccc32)n1 (10 µM) | 0 | 0 | 0 | 0 | 0 | 0
O=C(Nc1nccs1)C(c1cc(F)ccc1O)N1Cc2ccccc2C1=O (configuration not stated) (10 µM) | 0 | 0 | 0 | 0 | 0 | 0

2 entries from above, field by field.
COc1cc(OC)c(/C=C/S(=O)(=O)Cc2ccc(OC)c(NCC(=O)O)c2)c(OC)c1 [Rigosertib (sodium)] (10 µM)
  number of time points (YES1): 0; number of time points (ZAK): 0; number of time points (ZAP70): 0; number of time points (CDK4): 0; number of time points (CDK7): 2; number of time points (CDK9): 0
O=C1c2c(O)cc(O)cc2O[C@H](c2cc(O)c(O)c(O)c2)[C@H]1O [Dihydromyricetin] (10 µM)
  number of time points (YES1): 0; number of time points (ZAK): 0; number of time points (ZAP70): 0; number of time points (CDK4): 0; number of time points (CDK7): 0; number of time points (CDK9): 0

Reference: the supplement of paper PMC12823440, “Inhibitors supercharge kinase turnover through native proteolytic circuits” (Nature, 2025)
